Measured values as given in US20050025760A1 (KEIO UNIVERSITY, published 2005).
Substitutions are numbered along the chain they refer to. Results are given in words; binding and its absence hold for the method and conditions named. Some binding calls cover weakened binding; strength is not graded here.

The chains behind the UniProt entries cited, without tags or fusion partners. Where a name states a change or a piece, a line headed by the entry shows the natural chain unless it says otherwise. A line that says so, or that is headed by a name, gives the form on record, which may keep a tag or linker.
Dsg1-M7-8 (Q02413, form named): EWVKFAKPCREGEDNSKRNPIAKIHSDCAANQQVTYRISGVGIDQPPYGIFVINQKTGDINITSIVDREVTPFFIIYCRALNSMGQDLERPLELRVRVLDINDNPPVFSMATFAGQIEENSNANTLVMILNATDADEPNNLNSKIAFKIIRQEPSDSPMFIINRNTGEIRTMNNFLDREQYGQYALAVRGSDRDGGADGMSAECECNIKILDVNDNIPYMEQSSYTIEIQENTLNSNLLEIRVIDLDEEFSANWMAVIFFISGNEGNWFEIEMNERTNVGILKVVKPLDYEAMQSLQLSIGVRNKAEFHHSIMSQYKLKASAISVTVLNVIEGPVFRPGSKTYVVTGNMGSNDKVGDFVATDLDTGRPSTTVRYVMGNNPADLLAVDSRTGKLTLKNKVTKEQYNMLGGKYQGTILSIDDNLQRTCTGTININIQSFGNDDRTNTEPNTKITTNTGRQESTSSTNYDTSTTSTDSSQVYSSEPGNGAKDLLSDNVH

Key:
Assay in all cases: immunoprecipitation of point-mutated molecules (FIG. 5)
Dsg3-M8 (human) = molecular target: T1, Dsg3-M8 (human) (UniProt P32926)
T1 sequence (looked up): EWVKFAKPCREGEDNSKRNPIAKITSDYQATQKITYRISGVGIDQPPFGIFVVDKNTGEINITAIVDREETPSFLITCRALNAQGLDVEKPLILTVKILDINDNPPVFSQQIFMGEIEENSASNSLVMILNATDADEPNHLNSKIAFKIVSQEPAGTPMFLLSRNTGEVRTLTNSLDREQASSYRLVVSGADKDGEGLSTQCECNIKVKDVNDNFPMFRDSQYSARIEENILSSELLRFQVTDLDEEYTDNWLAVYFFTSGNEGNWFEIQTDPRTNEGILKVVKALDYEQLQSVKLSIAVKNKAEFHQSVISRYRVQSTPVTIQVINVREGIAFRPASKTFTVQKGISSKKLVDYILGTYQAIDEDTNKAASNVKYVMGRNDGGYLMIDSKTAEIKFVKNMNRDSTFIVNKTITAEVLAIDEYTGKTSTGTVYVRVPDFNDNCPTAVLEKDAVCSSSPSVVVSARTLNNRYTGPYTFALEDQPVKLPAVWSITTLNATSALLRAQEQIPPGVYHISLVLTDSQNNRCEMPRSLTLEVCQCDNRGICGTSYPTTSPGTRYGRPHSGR

Dsg1-M7-8 (human) = Dsg1-M7-8 (human) (UniProt Q02413)
Dsg3-M1-2 (human) = molecular target: T2, Dsg3-M1-2 (human) (UniProt P32926)
T2 sequence (looked up): T1 sequence (looked up) with T25H, Y28C, Q29A, T31N, K33Q, I34V, E59D

Dsg3-M1-2-3 (human) = molecular target: T3, Dsg3-M1-2-3 (human) (UniProt P32926)
T3 sequence (looked up): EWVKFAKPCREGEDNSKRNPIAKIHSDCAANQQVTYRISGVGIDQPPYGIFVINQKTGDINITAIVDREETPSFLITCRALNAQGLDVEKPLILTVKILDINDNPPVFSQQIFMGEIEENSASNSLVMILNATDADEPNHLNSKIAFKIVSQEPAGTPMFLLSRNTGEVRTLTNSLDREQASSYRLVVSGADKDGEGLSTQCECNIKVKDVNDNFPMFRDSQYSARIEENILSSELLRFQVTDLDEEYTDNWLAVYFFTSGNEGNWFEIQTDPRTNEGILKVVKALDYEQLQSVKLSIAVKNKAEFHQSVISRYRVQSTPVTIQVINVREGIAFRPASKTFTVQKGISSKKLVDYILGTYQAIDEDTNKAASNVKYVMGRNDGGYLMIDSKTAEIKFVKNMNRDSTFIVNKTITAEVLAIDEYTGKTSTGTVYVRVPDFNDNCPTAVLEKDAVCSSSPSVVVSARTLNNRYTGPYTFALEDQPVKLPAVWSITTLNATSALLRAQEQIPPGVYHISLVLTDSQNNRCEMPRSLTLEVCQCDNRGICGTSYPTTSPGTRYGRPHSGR

Measured: binding

B1: anti-Dsg3 monoclonal antibody AK23 (antibody, mouse IgG1, V domains shown)
VH: QVQLQQSGTELVKPGASVKLSCKSSGYTFTSYWINWVKQRPGQGLEWIGNINPSNGGINYNEKFKSKATLTVDKSSSTAYMQLKSLTSEDSAVYYCARGGYDGYPWGQGTTVTVS
VL: DIQMTQSPKFLLVSAGDRVTITCKASQSVSYDVAWYQQKPGQSPKLLISYASNRYTGVPDRFTGSGYGSDFTFTISTVQTEDLAVYFCQQDYSSPWTFGGGTKLELKR
notes: Mouse IgG1 kappa hybridoma antibody
binds: all assays above
